The results in this text go back to publication PMC11189428.

The chains behind the UniProt entries cited, without tags or fusion partners. Where a name states a change or a piece, a line headed by the entry shows the natural chain unless it says otherwise. Residues count along the entry.
UniProt P38647, residues 47-679: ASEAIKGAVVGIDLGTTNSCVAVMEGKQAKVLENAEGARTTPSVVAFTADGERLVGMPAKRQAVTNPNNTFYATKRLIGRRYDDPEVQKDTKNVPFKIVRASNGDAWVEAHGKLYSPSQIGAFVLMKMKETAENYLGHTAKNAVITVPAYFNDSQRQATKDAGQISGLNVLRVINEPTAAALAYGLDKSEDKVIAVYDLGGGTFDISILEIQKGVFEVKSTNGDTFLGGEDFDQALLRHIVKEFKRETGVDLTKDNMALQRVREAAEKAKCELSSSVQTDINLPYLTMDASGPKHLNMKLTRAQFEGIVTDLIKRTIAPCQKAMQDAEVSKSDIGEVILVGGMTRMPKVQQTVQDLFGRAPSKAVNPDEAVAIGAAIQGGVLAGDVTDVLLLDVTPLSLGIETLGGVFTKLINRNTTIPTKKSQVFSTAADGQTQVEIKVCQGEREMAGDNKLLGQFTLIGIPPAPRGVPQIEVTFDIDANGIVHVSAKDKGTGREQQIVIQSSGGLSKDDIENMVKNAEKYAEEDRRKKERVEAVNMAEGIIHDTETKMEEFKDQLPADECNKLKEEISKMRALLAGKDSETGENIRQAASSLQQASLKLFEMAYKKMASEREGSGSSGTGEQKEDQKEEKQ
UniProt Q60932: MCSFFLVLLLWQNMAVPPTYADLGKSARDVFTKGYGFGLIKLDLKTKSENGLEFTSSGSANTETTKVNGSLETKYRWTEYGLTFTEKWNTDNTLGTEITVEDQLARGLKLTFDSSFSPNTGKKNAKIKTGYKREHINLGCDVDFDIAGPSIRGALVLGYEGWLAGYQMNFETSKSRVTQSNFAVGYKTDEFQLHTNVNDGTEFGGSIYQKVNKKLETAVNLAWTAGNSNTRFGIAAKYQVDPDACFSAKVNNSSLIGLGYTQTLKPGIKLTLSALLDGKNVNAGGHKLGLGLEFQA

No constants are given. Whether binding was seen depends on the method and setting. In cells and extracts the contact can be indirect. Binding calls can cover weak binding; strength is not graded here.

The target in assay [1] is glucose-regulated protein 75 (mouse (endogenous in mouse hippocampus, primary microglia and BV2 cells)) (UniProt P38647). As to the kind of experiment: proximity ligation; in situ Duolink PLA on 35-um frozen mouse brain sections (hippocampal DG), primary antibodies to IP3R-3, GRP75 and VDAC1 1:200 overnight at 4 C; control and CSDS mice, Iba-1 staining for microglia.
For assay [2] the target is unchanged. As to the kind of experiment: proximity ligation; Duolink PLA on cells grown on coverslips, fixed with 4% paraformaldehyde, 0.1% Triton X-100; primary microglia (and BV2 cells) untreated or treated with thapsigargin (1 uM, 12 h) or ATP (1 mM, 2 h).

Consider “voltage-dependent anion channel 1 (from UniProt Q60932)”, for which the binding result in assay [1] and in assay [2] was “binds” throughout.
